US20050158709A1, “Methods for determinging the influence of protein binding on antiretroviral activity” (priority 2002, published 2005)
Some of these results come from one statement about several compounds together.

Tested on: various HIV-1 strains (resistant strains)
Format: cell-based
Conditions: micromolar concentrations (1-5 μM)
Description: The influence of AAG, Human Serum Albumin (HSA) or Human Serum (HS) on the activity of antiretrovirals was measured in a cell-based antiviral assay. A phenotypic assay was performed to measure the ability of resistant virus strains to grow in the presence of each drug of interest, and in the presence of various combinations of plasma or serum proteins at different concentrations: • 50% heat-inactivated human serum (HS) with or without 10% fetal calf serum (FCS) • 1 mg/mL AAG and 10% FCS • 45 mg/mL human serum albumin (HSA) and 10% FCS
Anti-HIV activity was determined in HIV-or mock-infected MT4 cells by the MTT method as described by Pauwels et al (1988), J.Virol.Meth.20:[…], and Hertogs et al (1998), Antimicrob.Ag.Chemother.42:269-27. Briefly, recombinant or non-recombinant virus, with a specific resistance profile, were grown in cell culture to obtain viral stocks of known concentration. Susceptibility testing of the viral stocks in the presence of various antiviral agents and in the presence of plasma or serum proteins, and a detection system based on MTT determined to which extent agents inhibited replication of the virus strains.
Virus strains used for these studies had different origins: • HIV strains obtained by in vitro selection in the presence of various antivirals • Recombinant clinical isolates constructed according to the Antivirogram™ method as described by Hertogs et al (1998).
Virus strains with various levels of resistance against each of the PIs were used in similar experiments with AAG.

| SMILES | decrease in potency in the presence of 1 mg/mL AAG at micromolar concentrations |
| --- | --- |
| Cc1c(O)cccc1C(=O)N[C@@H](CSc1ccccc1)[C@H](O)CN1C[C@H]2CCCC[C@H]2C[C@H]1C(=O)NC(C)(C)C [Nelfinavir, nelfinavir] | less than 5 fold |
| CC(C)(C)NC(=O)[C@@H]1C[C@@H]2CCCC[C@@H]2CN1C[C@@H](O)[C@H](Cc1ccccc1)NC(=O)[C@H](CC(N)=O)NC(=O)c1ccc2ccccc2n1 [Saquinavir, saquinavir] | less than 5 fold |
| CC(C)CN(C[C@@H](O)[C@H](Cc1ccccc1)NC(=O)O[C@H]1CCOC1)S(=O)(=O)c1ccc(N)cc1 [amprenavir] | less than 5 fold |
